Data on two molecules can be found in US5340814A, “3-substituted methyl-2,3-dihydroimidazo[1,2-C] quinazoline derivatives, the preparation and use thereof” (National Science Council, priority 1992, dated 1994).

This data set has as its system α2-adrenergic receptor. Put plainly: α2-Adrenergic receptor binding, [^3 H] clonidine, rat brain cortex membranes. As to conditions: ratio of Ki values, α2 over α1.

Each structure is given as a SMILES string.

Consider `CSC1=Nc2ccccc2C2=NCC(CN3CCN(c4ccccc4Cl)CC3)N12` (centres unmarked) [Example 9, 3-{4-[1-(2-chlorophenyl)piperazinyl]}methyl-5-methylthio-2,3-dihydroimidazo[1,2-c]quinazoline], for which the “α2 /α1 ratio” value was found to be 529.
Regarding `COc1cccc(N2CCN(CC3CN=C4c5ccccc5N=C(SC)N43)CC2)c1` (centres unmarked) [Example 7, 3-{4-[1-(3-methoxyphenyl)piperazinyl]}methyl-5-methylthio-2,3-dihydroimidazo[1,2-c]quinazoline], the “α2 /α1 ratio” value was found to be 171.
